Source: article PMC7819943, “Rice protein-binding microarrays: a tool to detect cis-acting elements near promoter regions in rice”
This is one part of the list.

molecular target: T1, OsSMF1 (Oryza sativa, UniProt Q6ZLB0 1-436); test: protein-binding microarray (RPBM); PBS, 2% BSA, 51.3 ng/ul salmon testes DNA, 50 uM zinc acetate, 200 nM TF, 25 C, 1 h; high values mean tight binding; settings: protein: recombinant; tags: N-terminal polyhistidine and DsRed monomer fusion (pET32a); chain copies: 2; label: CyDye5-dUTP incorporated in the synthesized complementary strand; 3' TTTTT single-stranded linker to array surface; dsDNA, one strand shown
T1 sequence: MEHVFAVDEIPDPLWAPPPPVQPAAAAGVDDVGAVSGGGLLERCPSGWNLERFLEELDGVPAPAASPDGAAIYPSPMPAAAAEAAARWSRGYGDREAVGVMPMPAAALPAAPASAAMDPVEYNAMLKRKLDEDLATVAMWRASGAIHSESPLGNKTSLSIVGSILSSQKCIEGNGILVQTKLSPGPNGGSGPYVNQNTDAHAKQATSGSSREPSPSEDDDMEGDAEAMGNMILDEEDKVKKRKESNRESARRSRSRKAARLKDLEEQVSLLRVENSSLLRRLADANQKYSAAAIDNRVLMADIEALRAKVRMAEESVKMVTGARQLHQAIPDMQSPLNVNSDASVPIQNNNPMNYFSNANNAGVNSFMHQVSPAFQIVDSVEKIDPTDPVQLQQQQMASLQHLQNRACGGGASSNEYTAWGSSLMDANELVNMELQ
How it was run: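 For the binding signal, per-feature fluorescence intensity was read in arbitrary units on an Axon 4000B scanner. Before scanning, a 2% BSA-blocked custom Agilent array made double-stranded with Cy5-dUTP was washed after 1 h at 25 °C with 200 nM protein and 50 µM zinc acetate. The proteins were Ni–NTA-purified transcription factors with N-terminal polyhistidine and DsRed fusions, expressed in E. coli BL21-CodonPlus.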

Sequence	binding signal
TGCCAAGTCGCCGGTGCCTTGTCAATCAAGCTCCAGGTGGCGGAGTCACCTAGTGCAG	4160 fluorescence intensity (a.u.)
CTCACATGTCATACACACACTGCGTCTTGGAGTCCGTGCTCGGAGTCACCTAGTGCAG	4810 fluorescence intensity (a.u.)
AAGCACAAACAATACAGAGATGACTCGCAGGGCGGTTGAGCGGAGTCACCTAGTGCAG	3470 fluorescence intensity (a.u.)
GCGTGGCCACATCAGCCTCCTCTCTCCCTTCCTCATCTCTCGGAGTCACCTAGTGCAG	14700 fluorescence intensity (a.u.)
GATTGGCAGGAGCCATGTTACGTCGGTCCATCCCGTCCCGCGGAGTCACCTAGTGCAG	3760 fluorescence intensity (a.u.)
GTGCCACCGTGATATTGCCATGTCAGCACACAAAGTGAATCGGAGTCACCTAGTGCAG	13000 fluorescence intensity (a.u.)
CACCAGGTGGAGGGTCGACTCCTTCTGGATGTTGTAGTCGCGGAGTCACCTAGTGCAG	3250 fluorescence intensity (a.u.)
CGTTCTCCCTCCTCGGCGCGACGTGGACGAGATGATGACGCGGAGTCACCTAGTGCAG	4880 fluorescence intensity (a.u.)
ACTGAAGTTGTAGAATCCGGTTAGGTCTCACGTATGAGTTCGGAGTCACCTAGTGCAG	19600 fluorescence intensity (a.u.)
CCTTGTAGCGGCGGCGCCCTTCCACGTGCGCAGAGGCCGCCGGAGTCACCTAGTGCAG	11100 fluorescence intensity (a.u.)
GCTGATGACGTCCCTATCGGTTCTTATCTCAGTTCCTCCCCGGAGTCACCTAGTGCAG	9520 fluorescence intensity (a.u.)
AGTAACCGTTGGATAGCCACGTGTGCGGCCACGATCCGGTCGGAGTCACCTAGTGCAG	13900 fluorescence intensity (a.u.)
GTCTAGTATAAATCAACGCCACACCACTTGCCTAGTCATCCGGAGTCACCTAGTGCAG	9090 fluorescence intensity (a.u.)
TCATCTCATCTCTCCACGTCACCCGACTCCGACTCCGTGGCGGAGTCACCTAGTGCAG	16900 fluorescence intensity (a.u.)
AACAGAAACATCCTCGTCAGCCGATCTGTTCACCAGTCTCCGGAGTCACCTAGTGCAG	6900 fluorescence intensity (a.u.)
TGTTTCTTGAATTCTCTTCTCCTAGTCAGATATCGCTGCCCGGAGTCACCTAGTGCAG	5270 fluorescence intensity (a.u.)
TCCCCACCTAGGTTAAAAGATACGGAAACTGCATGAGAACCGGAGTCACCTAGTGCAG	5750 fluorescence intensity (a.u.)
CTGGCATGACACGGCCCGACGTGCGACTGACCTCGACCTACGGAGTCACCTAGTGCAG	3150 fluorescence intensity (a.u.)
ACCTGCCAGAGGAGGATTCATCCCCGCCCCGCGCGCGCGTCGGAGTCACCTAGTGCAG	3220 fluorescence intensity (a.u.)
ACGCGACTGATGCGAATGGGATGAGTTCCTTTCGATGTTTCGGAGTCACCTAGTGCAG	3460 fluorescence intensity (a.u.)
AGTGACGCTGTGACTTGTCCATTAGCCTGCCACCTCAGATCGGAGTCACCTAGTGCAG	6880 fluorescence intensity (a.u.)

Two records drawn at random from those above, as already listed:
Sequence	binding signal
CACCAGGTGGAGGGTCGACTCCTTCTGGATGTTGTAGTCGCGGAGTCACCTAGTGCAG	3250 fluorescence intensity (a.u.)
CTGGCATGACACGGCCCGACGTGCGACTGACCTCGACCTACGGAGTCACCTAGTGCAG	3150 fluorescence intensity (a.u.)

Next part:

Sequence	binding signal
ATCAAACGACCGCGCACTTTCATACACTACAGCTAGCACGCGGAGTCACCTAGTGCAG	7000 fluorescence intensity (a.u.)
GAAAACCGAACACACATGACTCACCGCTGCACTATCCAGTCGGAGTCACCTAGTGCAG	10200 fluorescence intensity (a.u.)
AGGGACCGATGCGATGCGGCCAGTACATATATGGGATTTCCGGAGTCACCTAGTGCAG	3710 fluorescence intensity (a.u.)
CTTATAGCAAATAGGCATTTTGGGGAGACAAATATGAATGCGGAGTCACCTAGTGCAG	3540 fluorescence intensity (a.u.)
AAATAACCGATACTAAAATCAATGGTTAAAATGAGTCAAACGGAGTCACCTAGTGCAG	15200 fluorescence intensity (a.u.)
CGACAGCGGAACGTGAGCTCTGGGGCGACGACGGCGGCAACGGAGTCACCTAGTGCAG	46800 fluorescence intensity (a.u.)
TACCTTACCTGTACGGCAGGCATGCATGTTACTCCAGTAGCGGAGTCACCTAGTGCAG	39800 fluorescence intensity (a.u.)
TTGCTTGGCTGAGACGCCGAGTCATATGTCAAGATAGTACCGGAGTCACCTAGTGCAG	3370 fluorescence intensity (a.u.)
CCGACGTGGCTCGCCACGATGCCGGCAGCGTCGTCGCTGGCGGAGTCACCTAGTGCAG	34500 fluorescence intensity (a.u.)
TTGGACGCATGCTAATATAATTACGTGGTACTTGATGTATCGGAGTCACCTAGTGCAG	5440 fluorescence intensity (a.u.)
CCATGTCGCCGCCGCCGACCACCCGGACGCCCTCCGCGCGCGGAGTCACCTAGTGCAG	3260 fluorescence intensity (a.u.)
AGTGACTAACCAAACACTTGCTAACTGTGACACTATCCCCCGGAGTCACCTAGTGCAG	5150 fluorescence intensity (a.u.)
GAAAGAAAATACGTGCCAACGCATCTATAAATGGACAAGCCGGAGTCACCTAGTGCAG	4950 fluorescence intensity (a.u.)
ATAGACAGTTCAGGGTTAAAATATTTCGGTTTTGTGGTTTCGGAGTCACCTAGTGCAG	29600 fluorescence intensity (a.u.)
TTTCAGCTTCCATCATCACCATCACTACTATTCACTACTTCGGAGTCACCTAGTGCAG	3520 fluorescence intensity (a.u.)
TAGTGTTGCTTGCAGTCTTGTTTTGTCATTCGTGCTAATCCGGAGTCACCTAGTGCAG	3570 fluorescence intensity (a.u.)
GCACACCATCAACCCAGCCTCGTCACGGAGCCATCGACGACGGAGTCACCTAGTGCAG	5080 fluorescence intensity (a.u.)
AACTGGTATAAAGCAAATAGGCAATGCTGTACTGTCATTTCGGAGTCACCTAGTGCAG	3860 fluorescence intensity (a.u.)
TGTCAATTGCACACAGGGTTCATAGTCCCGAGCGGTATCTCGGAGTCACCTAGTGCAG	3430 fluorescence intensity (a.u.)
ATGAAAATAGGGATTGCTCCTTTAGGTTCGGTTGGGCCTTCGGAGTCACCTAGTGCAG	6340 fluorescence intensity (a.u.)
CCGCCCAAGATTGCACTTGTCCACGCCGTGCATCGAGCCACGGAGTCACCTAGTGCAG	4280 fluorescence intensity (a.u.)

Sequence	binding signal
ACAGACTGACGACGTTTCATGACTGACTGTTTGACTTATCCGGAGTCACCTAGTGCAG	4390 fluorescence intensity (a.u.)
GCGCGGCCATCGCGGCGCACCCGGAGCCGGGATCCTACGCCGGAGTCACCTAGTGCAG	4510 fluorescence intensity (a.u.)
TGGTGTGTGCTTGCTGCTGCTGCTGCTTCAGTTCTCGAGTCGGAGTCACCTAGTGCAG	5480 fluorescence intensity (a.u.)
ACACATTAGTTTGGTGATATCAGCTGGCTGTATCTATCTTCGGAGTCACCTAGTGCAG	3590 fluorescence intensity (a.u.)
TCTCCCTTGGCGGCAAGCCACGTACTCCCTCCATCATTTACGGAGTCACCTAGTGCAG	5620 fluorescence intensity (a.u.)
GGTCCGGTGTGACACTGTGACCCCGCCGTAACCCCGTAACCGGAGTCACCTAGTGCAG	4060 fluorescence intensity (a.u.)
GGAGAGAGAAATAGTTGTGTAAGTACGGTTCTACCCTTTGCGGAGTCACCTAGTGCAG	5640 fluorescence intensity (a.u.)
TATCTGAACTCTTGACGTGTTATGAACTCTCGTAGGACCTCGGAGTCACCTAGTGCAG	6790 fluorescence intensity (a.u.)
CCGCCATTGCGTGTTTTCCTACGCAACCTTTGTCTATAAACGGAGTCACCTAGTGCAG	5370 fluorescence intensity (a.u.)
ACCGCCGCTGCCTCCTCTTGTCACCCCACGCCACAGCGATCGGAGTCACCTAGTGCAG	3660 fluorescence intensity (a.u.)
GTTGTTGCTGAGTTTCTCTCTGTGTCAGATAGTAGCCGTTCGGAGTCACCTAGTGCAG	3900 fluorescence intensity (a.u.)
AGTACATTAAATCGGCACAAGATATGATTACGTGTGTTATCGGAGTCACCTAGTGCAG	5070 fluorescence intensity (a.u.)
CCCCACCGACGGCGTGCAAAGCGGCCACCCAGCTCGACGCCGGAGTCACCTAGTGCAG	8120 fluorescence intensity (a.u.)
TGCGGCAGATGGGGAGAGCTCTCGGCGTGTCCACGTAGGACGGAGTCACCTAGTGCAG	8780 fluorescence intensity (a.u.)
CCCTCCGCCGTTGCTGCCGCGCTCGACGTCATTGTCGCCACGGAGTCACCTAGTGCAG	6520 fluorescence intensity (a.u.)
TGTGGCATGCCACATACACGCCACGTAGGATCCTGAAGGGCGGAGTCACCTAGTGCAG	18000 fluorescence intensity (a.u.)
TGTTGGTGAGCCTACAGTTCATGACGATGCTGGCCAGATGCGGAGTCACCTAGTGCAG	3480 fluorescence intensity (a.u.)
TTGCGCGCGCCACCGCCACCGCAACCGCCGCCGCAATGTCCGGAGTCACCTAGTGCAG	3990 fluorescence intensity (a.u.)
ATGTCGAAAGGCCTATATGGGCCAGATGATGTGTCCAGGGCGGAGTCACCTAGTGCAG	34600 fluorescence intensity (a.u.)
CTATTAGAATATTTTATAATAGTTAATAGTTAATTAATTACGGAGTCACCTAGTGCAG	39700 fluorescence intensity (a.u.)
ACCTGATGAAACAATATCAAAACAAAGATATATATGCATACGGAGTCACCTAGTGCAG	3290 fluorescence intensity (a.u.)

Reprinted from above for reference:
Sequence	binding signal
GGTCCGGTGTGACACTGTGACCCCGCCGTAACCCCGTAACCGGAGTCACCTAGTGCAG	4060 fluorescence intensity (a.u.)
GGAGAGAGAAATAGTTGTGTAAGTACGGTTCTACCCTTTGCGGAGTCACCTAGTGCAG	5640 fluorescence intensity (a.u.)
TATCTGAACTCTTGACGTGTTATGAACTCTCGTAGGACCTCGGAGTCACCTAGTGCAG	6790 fluorescence intensity (a.u.)
CCGCCATTGCGTGTTTTCCTACGCAACCTTTGTCTATAAACGGAGTCACCTAGTGCAG	5370 fluorescence intensity (a.u.)
ACCGCCGCTGCCTCCTCTTGTCACCCCACGCCACAGCGATCGGAGTCACCTAGTGCAG	3660 fluorescence intensity (a.u.)

Later entries:

Sequence	binding signal
CAGTATCGCTAATTAATGACATCAACACTAATCAGCGTTGCGGAGTCACCTAGTGCAG	3190 fluorescence intensity (a.u.)
CCGACAGGCGCGTCGCCGCCACGCGCGCCCCGGACCCGGCCGGAGTCACCTAGTGCAG	4200 fluorescence intensity (a.u.)
AGTAAATCCACATCAACAGCATTCTGTTGTTAACTCTGCCCGGAGTCACCTAGTGCAG	6820 fluorescence intensity (a.u.)
TTAATAGTACATAGTTAAAAGTTAACTCAGTGTTGTACAACGGAGTCACCTAGTGCAG	3230 fluorescence intensity (a.u.)
TAGCCACAGTTTTGCTGACGTTCTCTTTTATCTGTTTGCTCGGAGTCACCTAGTGCAG	6320 fluorescence intensity (a.u.)
GTGTTATTGTGTACTTTAACGTTGATTATATGACTGGACCCGGAGTCACCTAGTGCAG	6470 fluorescence intensity (a.u.)
CACCCGACTCAGATACCCGAATCCACGTCAGCCCAGAGCCCGGAGTCACCTAGTGCAG	14300 fluorescence intensity (a.u.)
GATTTTGTCCTATGTGGCTGCTGACTCAGCGTGGGACCCACGGAGTCACCTAGTGCAG	30200 fluorescence intensity (a.u.)
AGACCGCTCGCGCGTACGTGACGCGATCGGGCAGCGCGGGCGGAGTCACCTAGTGCAG	4060 fluorescence intensity (a.u.)
GTACGTGCATGTATTTATAGGGATGAGTGTGCACGTGTTGCGGAGTCACCTAGTGCAG	4370 fluorescence intensity (a.u.)
CTCGCGTAAGCAATGACGCAAGGCAATAGCAGCCACAGACCGGAGTCACCTAGTGCAG	5640 fluorescence intensity (a.u.)
CACAGCCTAAGTATGCATATAAATGAGATAAACTATTAATCGGAGTCACCTAGTGCAG	21200 fluorescence intensity (a.u.)
CTAGATTTATTAATATCGATATGAATGTGGAAAATGCTAGCGGAGTCACCTAGTGCAG	18100 fluorescence intensity (a.u.)
CACTCTTCTCATCTTCCTCGGCTGACACTTCTTAGGGTAGCGGAGTCACCTAGTGCAG	3320 fluorescence intensity (a.u.)
AATTTAGCTCCAATTATGTCCAACTCATCTATAACTTACTCGGAGTCACCTAGTGCAG	3300 fluorescence intensity (a.u.)
ATATGACCAAAGTATAGGACTCCATCGACATGTGATTAATCGGAGTCACCTAGTGCAG	3420 fluorescence intensity (a.u.)
GGCCTCAGTACAGCACAAGCTCTCCACTATACTGTAGTAGCGGAGTCACCTAGTGCAG	3180 fluorescence intensity (a.u.)
GCCAGCCACTGGCTAAACGCCTAGTTGTGAAGAGAGAACGCGGAGTCACCTAGTGCAG	3290 fluorescence intensity (a.u.)
GGCATGGCACCATATTATTTGCTTGAGGATTATTGTTTAGCGGAGTCACCTAGTGCAG	8510 fluorescence intensity (a.u.)
AATTAATATGTCATTAGCACATATAGGTTACTATAGAACTCGGAGTCACCTAGTGCAG	3640 fluorescence intensity (a.u.)
TTAACAGAAACACATGCATTAATATGTGGCAGCATAGATGCGGAGTCACCTAGTGCAG	4810 fluorescence intensity (a.u.)
